Results: publication PMC7852545, “Cell fate determined by the activation balance between PKR and SPHK1” (Cell Death and Differentiation, 2020)
These are yes or no findings as the source states them, for the method shown. In cells and extracts the contact can be indirect. Some results given as binding are weak or reduced against the parent protein; the word gives no strength. One block for each substance: values may come before it.

By UniProt entry, the sequences of proteins in these tests, tags left out. Where a name states a change or a piece, a line headed by the entry shows the natural chain unless it says otherwise. Chains listed by the source or under a name are the forms on record and can include a tag or linker.
UniProt P19525: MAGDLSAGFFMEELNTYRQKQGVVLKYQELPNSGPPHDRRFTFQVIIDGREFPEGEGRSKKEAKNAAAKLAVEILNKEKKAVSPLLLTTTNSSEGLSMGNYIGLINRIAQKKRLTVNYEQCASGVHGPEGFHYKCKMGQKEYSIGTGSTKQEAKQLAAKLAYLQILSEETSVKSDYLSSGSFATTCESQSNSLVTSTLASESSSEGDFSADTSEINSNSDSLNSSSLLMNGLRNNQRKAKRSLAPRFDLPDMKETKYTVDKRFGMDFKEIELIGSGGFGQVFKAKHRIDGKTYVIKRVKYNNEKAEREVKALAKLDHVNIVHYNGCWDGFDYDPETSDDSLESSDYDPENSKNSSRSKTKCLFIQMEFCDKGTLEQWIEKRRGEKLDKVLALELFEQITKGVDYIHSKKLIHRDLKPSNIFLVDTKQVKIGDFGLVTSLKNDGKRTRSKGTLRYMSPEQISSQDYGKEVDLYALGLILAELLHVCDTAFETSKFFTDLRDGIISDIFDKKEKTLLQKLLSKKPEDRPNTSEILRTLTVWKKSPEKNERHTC
PKR^451A (co-IP of Supplementary Fig. 14b) (P19525, form named): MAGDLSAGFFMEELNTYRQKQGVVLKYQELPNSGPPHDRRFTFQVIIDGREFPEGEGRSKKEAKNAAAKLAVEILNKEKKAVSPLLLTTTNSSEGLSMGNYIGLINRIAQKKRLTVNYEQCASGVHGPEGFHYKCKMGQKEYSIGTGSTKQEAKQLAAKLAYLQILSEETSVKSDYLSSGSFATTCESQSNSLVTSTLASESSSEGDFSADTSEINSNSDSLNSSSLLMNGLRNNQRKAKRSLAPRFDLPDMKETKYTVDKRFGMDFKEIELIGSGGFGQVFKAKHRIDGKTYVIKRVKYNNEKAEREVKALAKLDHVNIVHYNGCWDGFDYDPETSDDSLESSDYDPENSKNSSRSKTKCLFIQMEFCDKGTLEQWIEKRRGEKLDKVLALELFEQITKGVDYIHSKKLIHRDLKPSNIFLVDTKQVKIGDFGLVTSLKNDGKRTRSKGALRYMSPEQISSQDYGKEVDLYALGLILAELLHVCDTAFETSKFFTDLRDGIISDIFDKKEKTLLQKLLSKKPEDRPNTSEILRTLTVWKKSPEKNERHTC
PKR^451D-Flag (P19525, form named): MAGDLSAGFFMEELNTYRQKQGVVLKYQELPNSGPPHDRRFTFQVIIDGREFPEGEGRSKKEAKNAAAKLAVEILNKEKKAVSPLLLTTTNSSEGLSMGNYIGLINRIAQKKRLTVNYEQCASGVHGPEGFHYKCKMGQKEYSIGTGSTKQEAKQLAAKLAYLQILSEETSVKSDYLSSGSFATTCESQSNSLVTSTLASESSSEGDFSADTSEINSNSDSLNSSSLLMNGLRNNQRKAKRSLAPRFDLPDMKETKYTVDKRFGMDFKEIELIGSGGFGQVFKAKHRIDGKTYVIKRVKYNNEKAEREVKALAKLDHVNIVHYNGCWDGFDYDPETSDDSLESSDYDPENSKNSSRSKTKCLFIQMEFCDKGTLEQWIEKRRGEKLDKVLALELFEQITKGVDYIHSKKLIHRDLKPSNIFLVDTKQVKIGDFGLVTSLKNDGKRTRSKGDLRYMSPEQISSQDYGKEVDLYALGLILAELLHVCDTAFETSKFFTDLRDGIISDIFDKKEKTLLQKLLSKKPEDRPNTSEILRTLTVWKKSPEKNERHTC
UniProt Q9NYA1: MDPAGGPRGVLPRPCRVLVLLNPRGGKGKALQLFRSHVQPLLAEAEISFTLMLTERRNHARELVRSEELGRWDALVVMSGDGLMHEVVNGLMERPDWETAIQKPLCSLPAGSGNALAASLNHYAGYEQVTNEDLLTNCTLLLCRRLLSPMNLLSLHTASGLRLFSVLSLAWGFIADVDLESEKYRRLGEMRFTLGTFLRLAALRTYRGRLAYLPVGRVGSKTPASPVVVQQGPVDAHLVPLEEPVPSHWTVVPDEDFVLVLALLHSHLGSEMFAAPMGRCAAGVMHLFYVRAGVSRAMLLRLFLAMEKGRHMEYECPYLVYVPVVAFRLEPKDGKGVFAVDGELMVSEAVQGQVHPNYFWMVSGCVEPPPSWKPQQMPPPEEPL
SPHK1^225D-Flag (phosphomimetic mutant of SPHK1) (Q9NYA1, form named): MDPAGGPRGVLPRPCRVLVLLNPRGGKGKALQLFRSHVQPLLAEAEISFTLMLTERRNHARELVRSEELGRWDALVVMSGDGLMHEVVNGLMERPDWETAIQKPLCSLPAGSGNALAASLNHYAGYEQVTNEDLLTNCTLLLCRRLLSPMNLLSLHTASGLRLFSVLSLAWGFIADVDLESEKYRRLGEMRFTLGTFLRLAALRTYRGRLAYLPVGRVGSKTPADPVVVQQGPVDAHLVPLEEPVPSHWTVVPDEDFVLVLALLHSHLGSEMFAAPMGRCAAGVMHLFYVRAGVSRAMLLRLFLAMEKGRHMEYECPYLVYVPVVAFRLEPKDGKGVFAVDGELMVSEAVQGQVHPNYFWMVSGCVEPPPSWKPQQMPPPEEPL
SPHK1^225A-Flag (phosphorylation-deficient mutant of SPHK1) (Q9NYA1, form named): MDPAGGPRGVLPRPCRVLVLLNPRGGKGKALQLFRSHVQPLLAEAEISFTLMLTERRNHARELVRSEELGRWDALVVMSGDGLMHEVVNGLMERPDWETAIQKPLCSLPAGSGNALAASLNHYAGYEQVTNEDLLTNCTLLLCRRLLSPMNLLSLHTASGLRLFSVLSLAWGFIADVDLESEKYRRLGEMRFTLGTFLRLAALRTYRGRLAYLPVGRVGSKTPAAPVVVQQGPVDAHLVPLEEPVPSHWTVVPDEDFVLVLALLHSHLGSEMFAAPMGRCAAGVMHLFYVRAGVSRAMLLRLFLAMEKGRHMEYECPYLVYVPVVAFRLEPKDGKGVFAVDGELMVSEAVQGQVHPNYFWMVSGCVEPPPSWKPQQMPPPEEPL

Tests used:
[1] = target: PKR (co-IP of Supplementary Fig. 14b) (human) (UniProt P19525); assay: co-IP; Supplementary Fig. 14b; SPHK1^225D or SPHK1^225A immunoprecipitated by PKR and its mutants; constructs and cells not shown
[2] = target: PKR^451A (co-IP of Supplementary Fig. 14b) (human) (UniProt P19525); assay: as above
[3] = target: endogenous SPHK1 (human (endogenous in HEK293T)) (UniProt Q9NYA1); assay: co-IP; HEK293T transfected with Flag-tagged PKR (wild type, 451A, 451D); immunoprecipitation with the indicated antibodies; endogenous SPHK1 and phosphorylated SPHK1 detected
[4] = target: endogenous phosphorylated SPHK1 (phospho-Ser225) (human (endogenous in HEK293T)) (UniProt Q9NYA1); assay: as above
[5] = target: SPHK1-Flag (sphingosine kinase 1, wild type, Flag-tagged) (human) (UniProt Q9NYA1); assay: co-IP; HEK293T co-transfected with SPHK1-Flag and PKR-Myc for 24 h; lysis in NETN buffer (20 mM Tris-HCl pH 8.0, 100 mM NaCl, 1 mM EDTA, 0.5% NP-40); anti-Flag (M2) magnetic beads; blot with anti-Myc and anti-Flag
SPHK1^225D-VC155 (human) = SPHK1^225D-VC155 (human) (UniProt Q9NYA1); assay: split reporter; BiFC with Venus fragments; PKR-VN173 and SPHK1-VC155 constructs and the mutants transfected into HEK293T for 24 h; living cells, confocal microscopy
GST-SPHK1 (human) = GST-SPHK1 (human) (UniProt Q9NYA1); assay: pull-down; GST-SPHK1 bound to agarose beads (30 ug GST fusion protein) added to lysate of 293T cells overexpressing PKR-HA; 4 h at 4 °C; washed with NETN buffer; only the target purified
[6] = target: endogenous SPHK1 (human (endogenous in HEK293T)) (UniProt Q9NYA1); assay: co-IP; endogenous proteins in HEK293T lysate; immunoprecipitation with the indicated antibodies; also after 2 ng/mL leptomycin B for 2 h (interaction enhanced)
[7] = target: endogenous phosphorylated SPHK1 (phospho-Ser225) (human (endogenous in HEK293T)) (UniProt Q9NYA1); assay: as above
[8] = target: SPHK1-Flag (sphingosine kinase 1, wild type, Flag-tagged) (human) (UniProt Q9NYA1); assay: co-IP; HEK293T transfected with Flag-tagged SPHK1 (0, 1, 2, 3 ug DNA; wild type, 225A or 225D); immunoprecipitation with antibodies against Flag or PKR; endogenous PKR and phosphorylated PKR detected by blot
[9] = target: SPHK1^225D-Flag (phosphomimetic mutant of SPHK1) (human) (UniProt Q9NYA1); assay: as above
[10] = target: SPHK1^225A-Flag (phosphorylation-deficient mutant of SPHK1) (human) (UniProt Q9NYA1); assay: as above
SPHK1-VC155 (human) = SPHK1-VC155 (human) (UniProt Q9NYA1); assay: split reporter; BiFC with Venus fragments; PKR-VN173 and SPHK1-VC155 constructs and the mutants transfected into HEK293T for 24 h; living cells, confocal microscopy
[11] = target: SPHK1-Flag (sphingosine kinase 1, wild type, Flag-tagged) (human) (UniProt Q9NYA1); assay: co-IP; HepG2 and HEK293T transfected with SPHK1-Flag and the two PKR-HA deletion mutants; immunoprecipitation with an anti-Flag antibody

Substance: SPHK1^225D (co-IP of Supplementary Fig. 14b) (from UniProt Q9NYA1 1-384) (enzyme)
binding [1]: binds | binding [2]: binds

Substance: PKR^451D-Flag (from UniProt P19525 1-551) (enzyme)
binding [3]: binds | binding [4]: binds

Substance: PKR^451A-Flag (from UniProt P19525 1-551) (enzyme)
binding [3]: binds | binding [4]: binds

Substance: PKR-Myc (double-stranded RNA-dependent protein kinase R, Myc-tagged) (from UniProt P19525 1-551) (enzyme)
binding [5]: binds

Substance: PKR^451A-VN173 (from UniProt P19525 1-551) (enzyme)
binding (SPHK1^225D-VC155 (human)): binds

Substance: endogenous PKR (from UniProt P19525 1-551) (enzyme)
binding [6]: binds | binding [7]: binds | binding [8]: binds | binding [9]: binds | binding [10]: binds

Substance: SPHK1^225A (co-IP of Supplementary Fig. 14b) (from UniProt Q9NYA1 1-384) (enzyme)
binding [1]: binds | binding [2]: binds

Substance: endogenous phosphorylated PKR (phospho-Thr451) (from UniProt P19525 1-551) (enzyme)
binding [8]: binds | binding [9]: binds | binding [10]: binds

More lines, now with the values ahead:

binding (GST-SPHK1 (human)): binds
Substance: PKR-HA (double-stranded RNA-dependent protein kinase R, HA-tagged) (from UniProt P19525 1-551) (enzyme)

binding [3]: binds | binding [4]: binds
Substance: PKR-Flag (wild type) (from UniProt P19525 1-551) (enzyme)

binding (SPHK1^225D-VC155 (human)): binds | binding (SPHK1-VC155 (human)): binds
Substance: PKR-VN173 (from UniProt P19525 1-551) (enzyme)

binding [11]: binds
Substance: PKR-HA deletion mutant D2 (C-terminal kinase part of PKR) (from UniProt P19525 297-551) (domain or fragment)
